Measurements: PMC12332008, “Ribosome biogenesis in plants requires the nuclear envelope and mitochondria localized OPENER complex” (Nature Communications, 2025)
No constants are given. Whether binding was seen depends on the method and setting. Binding seen in cells or lysates may run through a third protein. These calls come from enrichment with a bait or labelling near it, and not all partners need be listed. For some assays here: Where a sequence is shown, tags or fusion partners need not be part of it.

The chains behind the UniProt entries cited, without tags or fusion partners. Where a name states a change or a piece, a line headed by the entry shows the natural chain unless it says otherwise.
UniProt F4K9I8: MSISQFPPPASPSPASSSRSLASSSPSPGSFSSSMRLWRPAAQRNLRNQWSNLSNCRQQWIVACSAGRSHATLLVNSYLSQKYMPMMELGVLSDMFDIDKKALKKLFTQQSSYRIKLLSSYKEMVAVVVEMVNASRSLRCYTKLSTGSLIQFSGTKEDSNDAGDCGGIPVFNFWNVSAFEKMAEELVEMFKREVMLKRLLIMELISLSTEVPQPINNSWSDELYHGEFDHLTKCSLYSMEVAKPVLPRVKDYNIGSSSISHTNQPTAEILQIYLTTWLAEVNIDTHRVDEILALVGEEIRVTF
UniProt Q9ZPR1: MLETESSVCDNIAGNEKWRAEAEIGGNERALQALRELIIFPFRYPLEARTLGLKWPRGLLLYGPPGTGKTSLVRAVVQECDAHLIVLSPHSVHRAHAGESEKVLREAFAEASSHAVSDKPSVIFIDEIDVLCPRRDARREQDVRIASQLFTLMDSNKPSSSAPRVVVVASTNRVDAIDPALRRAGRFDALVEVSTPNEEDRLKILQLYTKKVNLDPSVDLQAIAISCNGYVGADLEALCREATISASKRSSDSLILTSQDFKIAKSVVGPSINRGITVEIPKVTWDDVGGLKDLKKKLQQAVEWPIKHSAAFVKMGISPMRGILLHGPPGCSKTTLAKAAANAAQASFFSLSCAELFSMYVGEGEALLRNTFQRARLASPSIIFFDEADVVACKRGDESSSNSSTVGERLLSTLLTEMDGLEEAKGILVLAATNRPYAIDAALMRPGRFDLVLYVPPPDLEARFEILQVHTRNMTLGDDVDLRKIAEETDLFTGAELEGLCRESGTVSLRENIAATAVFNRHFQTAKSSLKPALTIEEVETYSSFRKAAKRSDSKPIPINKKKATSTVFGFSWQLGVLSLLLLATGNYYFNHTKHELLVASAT

How the values were obtained:
[1] = molecular target: T1, YFP-CIP111 (Arabidopsis thaliana) (UniProt Q9LET7); experiment: affinity purification with mass spectrometry; GFP-Trap-MA beads, total proteins of Arabidopsis calli of YFP fusion lines against free YFP; 50 mM Tris pH 7.5, 150 mM NaCl, 1 mM EDTA, 0.5% Triton X-100, 0.5% IGEPAL CA-630, 10% glycerol; 30 min at 4 °C
T1 sequence: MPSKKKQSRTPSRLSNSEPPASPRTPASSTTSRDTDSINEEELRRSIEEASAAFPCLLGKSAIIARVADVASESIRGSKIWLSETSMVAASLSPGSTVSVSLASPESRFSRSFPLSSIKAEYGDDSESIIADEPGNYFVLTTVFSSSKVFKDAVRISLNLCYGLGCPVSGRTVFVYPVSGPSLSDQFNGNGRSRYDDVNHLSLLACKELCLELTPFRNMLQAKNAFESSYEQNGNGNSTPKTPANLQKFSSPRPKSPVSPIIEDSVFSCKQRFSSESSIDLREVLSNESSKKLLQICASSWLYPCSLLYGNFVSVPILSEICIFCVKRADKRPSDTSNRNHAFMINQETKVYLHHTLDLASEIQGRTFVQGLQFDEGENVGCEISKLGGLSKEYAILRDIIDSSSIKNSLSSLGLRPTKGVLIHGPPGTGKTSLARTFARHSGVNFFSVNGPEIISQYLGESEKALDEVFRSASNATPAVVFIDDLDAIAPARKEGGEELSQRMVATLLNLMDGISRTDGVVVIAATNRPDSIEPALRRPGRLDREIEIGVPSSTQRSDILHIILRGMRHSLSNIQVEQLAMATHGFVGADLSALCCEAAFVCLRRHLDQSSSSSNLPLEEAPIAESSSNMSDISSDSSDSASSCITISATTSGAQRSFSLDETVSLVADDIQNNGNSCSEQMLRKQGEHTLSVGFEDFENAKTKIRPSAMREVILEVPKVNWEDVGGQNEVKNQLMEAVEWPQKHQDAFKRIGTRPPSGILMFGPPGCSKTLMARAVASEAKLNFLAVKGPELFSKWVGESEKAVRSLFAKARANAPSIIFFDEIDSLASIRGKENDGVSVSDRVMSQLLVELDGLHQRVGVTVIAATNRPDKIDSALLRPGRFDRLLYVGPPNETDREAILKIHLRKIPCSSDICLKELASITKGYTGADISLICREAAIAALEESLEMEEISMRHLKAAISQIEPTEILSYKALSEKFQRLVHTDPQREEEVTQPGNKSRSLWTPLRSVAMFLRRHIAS

[2] = molecular target: T2, OPNR-YFP (Arabidopsis thaliana) (UniProt Q6NPG7); experiment: as above
T2 sequence: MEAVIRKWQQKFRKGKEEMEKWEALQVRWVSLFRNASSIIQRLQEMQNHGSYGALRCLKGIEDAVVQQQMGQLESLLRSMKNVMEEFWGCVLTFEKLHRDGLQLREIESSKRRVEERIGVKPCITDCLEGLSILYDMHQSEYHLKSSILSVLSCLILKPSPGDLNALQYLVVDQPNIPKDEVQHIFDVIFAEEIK

[3] = molecular target: OAP1-YFP (Arabidopsis thaliana) (UniProt F4K9I8); experiment: as above
[4] = molecular target: YFP-CDC48D (Arabidopsis thaliana) (UniProt Q9ZPR1); experiment: as above
[5] = molecular target: TurboID-YFP-CDC48D (Arabidopsis thaliana) (UniProt Q9ZPR1); experiment: proximity labelling; TurboID; calli with 50 µM biotin for 3 h, mitochondria isolated, proteins bound to streptavidin Dynabeads, mass spectrometry; TurboID-YFP-CDC48D against TurboID-YFP
[6] = molecular target: TurboID-YFP-CDC48D (Arabidopsis thaliana) (UniProt Q9ZPR1); experiment: affinity purification with mass spectrometry; GFP-Trap-MA beads, proteins extracted from the mitochondria enriched pellet of biotin treated callus expressing TurboID-YFP-CDC48D against TurboID-YFP

Measured: binding

OPENER ASSOCIATED PROTEIN 2 (OAP2)
binds: [1] | [2]

OPENER ASSOCIATED PROTEIN 1 (OAP1)
binds: [1] | [2]

Cell Division Cycle 48 D (CDC48D) (from UniProt Q9ZPR1) (enzyme)
binds: [3] | [1] | [2]

B1: Calmodulin-interacting protein 111 (CIP111) (enzyme, UniProt Q9LET7 1-1022)
chain: T1 sequence
not listed: [1]
binds: all other assays above

B2: OPENER (OPNR) (protein, UniProt Q6NPG7 1-195)
chain: T2 sequence
not listed: [2]
binds: all other assays above
